Consider one substance from article doi:10.1101/2023.01.13.523903 (bioRxiv, 2023).

Sequences of proteins named here, by UniProt entry; tags and fusion partners are left off.
UniProt Q9JLQ0: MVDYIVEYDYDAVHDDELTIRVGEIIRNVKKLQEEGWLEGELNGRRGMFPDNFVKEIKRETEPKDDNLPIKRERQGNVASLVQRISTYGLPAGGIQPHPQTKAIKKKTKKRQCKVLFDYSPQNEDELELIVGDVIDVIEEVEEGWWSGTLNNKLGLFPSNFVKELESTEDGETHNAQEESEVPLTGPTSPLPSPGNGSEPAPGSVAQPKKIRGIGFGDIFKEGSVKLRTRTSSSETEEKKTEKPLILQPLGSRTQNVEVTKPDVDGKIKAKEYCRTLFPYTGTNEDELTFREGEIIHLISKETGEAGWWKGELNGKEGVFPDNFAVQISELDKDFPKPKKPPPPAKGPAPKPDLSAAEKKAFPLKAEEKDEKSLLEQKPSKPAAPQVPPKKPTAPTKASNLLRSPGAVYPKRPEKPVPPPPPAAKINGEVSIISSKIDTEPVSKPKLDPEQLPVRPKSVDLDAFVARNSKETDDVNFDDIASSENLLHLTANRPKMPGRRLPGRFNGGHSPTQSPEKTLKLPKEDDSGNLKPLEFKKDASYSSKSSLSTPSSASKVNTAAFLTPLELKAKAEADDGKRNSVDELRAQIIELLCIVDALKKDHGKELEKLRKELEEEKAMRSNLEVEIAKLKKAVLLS

Results are given in words; binding and its absence hold for the method and conditions named. In cells and extracts the contact can be indirect. A yes stands for co-enrichment or nearness to the bait. Other partners may have been found.

The target of this experiment is T1, TKS4 of NIH 3T3 cells (mouse (endogenous in NIH3T3)) (UniProt A2AAY5).
T1 sequence: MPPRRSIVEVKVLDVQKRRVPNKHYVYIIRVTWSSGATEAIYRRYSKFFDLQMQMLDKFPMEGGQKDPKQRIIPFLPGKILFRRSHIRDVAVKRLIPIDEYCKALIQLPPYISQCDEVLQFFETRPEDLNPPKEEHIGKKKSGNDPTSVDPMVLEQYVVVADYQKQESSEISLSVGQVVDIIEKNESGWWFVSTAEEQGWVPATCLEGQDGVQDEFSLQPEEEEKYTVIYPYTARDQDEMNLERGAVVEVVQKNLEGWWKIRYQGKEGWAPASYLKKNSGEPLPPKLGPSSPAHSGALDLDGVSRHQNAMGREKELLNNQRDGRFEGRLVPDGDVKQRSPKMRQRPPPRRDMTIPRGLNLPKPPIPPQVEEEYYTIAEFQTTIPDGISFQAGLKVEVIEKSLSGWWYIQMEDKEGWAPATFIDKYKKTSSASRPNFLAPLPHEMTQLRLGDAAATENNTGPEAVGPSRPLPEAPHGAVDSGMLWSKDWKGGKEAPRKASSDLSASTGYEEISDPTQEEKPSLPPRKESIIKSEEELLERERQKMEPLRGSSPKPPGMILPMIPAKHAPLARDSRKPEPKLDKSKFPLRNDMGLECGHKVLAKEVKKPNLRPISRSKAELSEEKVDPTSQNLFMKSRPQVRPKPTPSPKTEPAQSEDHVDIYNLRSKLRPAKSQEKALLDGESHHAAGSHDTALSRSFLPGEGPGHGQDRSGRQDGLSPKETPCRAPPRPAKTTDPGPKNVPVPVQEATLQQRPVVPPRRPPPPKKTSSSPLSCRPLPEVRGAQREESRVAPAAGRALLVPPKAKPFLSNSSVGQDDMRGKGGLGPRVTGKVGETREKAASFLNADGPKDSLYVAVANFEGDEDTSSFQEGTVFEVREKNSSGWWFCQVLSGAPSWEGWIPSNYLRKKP
The experiment can be described thus: affinity purification with mass spectrometry.

Turning to “CD2AP of NIH 3T3 cells (from UniProt Q9JLQ0 1-637)”, the binding entry was “binds”.
